Earlier results as cited in patent US20110274624A1, “CONTRAST AGENTS IN POROUS PARTICLES” (WILLIAM MARSH RICE UNIVERSITY, priority 2010, published 2011).
Where “and” joins values, the source holds several entries; their conditions need not be identical. Equal entries are not always repeated. At least one compound was matched to its structure with a doubt left.

CC(O)CN1CCN(CC(=O)[O-])CCN(CC(=O)[O-])CCN(CC(=O)[O-])CC1.[Gd+3] (stereo not shown) [Gd-HP-DO3A]
q (number of fast-exchanging inner-sphere water molecules): 1 | τR (tumbling time): 57 ps and 51 ps | τm (water residence lifetime): 176 ns and 217 ns | τv (correlation time for splitting): 6.5 ps and 7.5 ps
